Experimental data: the supplement of paper PMC5949888
Most values lie at the floor of the assay. Slopes are relative: functional sequences can read slightly below zero.

What follows are substances tested on Saccharomyces cerevisiae PS128 hsf1 delta, HSF1(1-493) fusion (assay: growth estimate (transactivation domain function in HSF1 fusion, heat-shock survival) (a.u. (slope of normalised read count over time)); higher = stronger growth at 37°C, i.e. more transactivation activity). Conditions: library: random library.

Row | Substance | growth estimate
1 | KSMEMRSFI | < -0.25
2 | VCPFDNGGCKTVSKEMDRAF | -0.245
3 | WIAKENTRQEAHRRNEMLAR | < -0.25
4 | HHTLGVLEGDGALTTHHLLS | < -0.25
5 | SLRPYWLR | < -0.25
6 | LLHCKSPTLGPIYKVLILAD | < -0.25
7 | FCQICEFVRHASFR | < -0.25
8 | GFEHLVFEGVSHIFSFTPRI | < -0.25
9 | LKSF | < -0.25
10 | ILRGNQSGSRSFRGPQ | < -0.25
11 | NLYADRNILSRNGF | < -0.25
12 | FLATPSGPQFNSTQVRCRPK | -0.222
13 | VDPRE | < -0.25
14 | FISDKRIAPWGVTAGDHFRQ | < -0.25
15 | RMTV | < -0.25
16 | EYHCRKALR | -0.243
17 | LEMEIDWLSGFSRCISLVSS | < -0.25
18 | AKCGTVNLMTPERVMVVFGS | < -0.25
19 | CTPPILGSVACKVGSLQLRG | < -0.25
20 | IEPY | < -0.25
21 | IWARSSIDPRQHGVSIKDK | < -0.25
22 | GQYHYDTLGSRRGRWGIFWA | < -0.25
23 | SGKG | < -0.25

Row | Substance | growth estimate
24 | YVYLAELHVPRSSKLVRRHL | < -0.25
25 | VVGPGRWGYPFPGW | < -0.25
26 | FPLPSSIP | < -0.25
27 | DRHWWSTSQEVLLHCYLVGL | < -0.25
28 | LVNSISN | < -0.25
29 | EARLGPSITPWVRLRSARVP | < -0.25
30 | CLVR | < -0.25
31 | ASPSGMGTE | < -0.25
32 | AYYTSADEKTMLRSSSWGTS | < -0.25
33 | GFLNFRIGSR | < -0.25
34 | NQL | < -0.25
35 | NRCLVKYKNR | < -0.25
36 | RAQYSAALPAV | < -0.25
37 | LQYPIIRAIASKMVGGAW | < -0.25
38 | KRFMSMARLLYGVSAVVSDR | < -0.25
39 | PGGRLWTGQALNVSPRTA | < -0.25
40 | HSSIKFRGYQES | < -0.25
41 | RSD | < -0.25
42 | CAFSELTGKLNCRRPSPMPY | < -0.25
43 | SEWVYDRPISRIHVVIGSKT | < -0.25
44 | VRYILR | < -0.25
45 | SWGLLL | < -0.25
46 | ISGPGPLRYRLKSTSVCLMH | < -0.25

A different layout for part of the listing above:

| Row | Substance | growth estimate |
| --- | --- | --- |
| 1 | KSMEMRSFI | < -0.25 |
| 2 | VCPFDNGGCKTVSKEMDRAF | -0.245 |

More records follow:

Row | Substance | growth estimate
47 | LEFAAVARDQQRTSSIDAKQ | < -0.25
48 | RQV | < -0.25
49 | FCHRRGGKIIPRELWESGNV | < -0.25
50 | GQPRRVVEVVWPSQHAIKTT | < -0.25
51 | ITETLQANSWTASTCPLAPW | -0.235
52 | LHAN | < -0.25
53 | VVRLAEGNSDPRTVSQYLRT | < -0.25
54 | RMSPGVGSFIVYSIRYRWGI | < -0.25
55 | RIGHLVTPLFASWNFTRDSS | < -0.25
56 | RFNDGLNQRELQLFVRRQAL | -0.231
57 | LFLR | < -0.25
58 | GSGRCESACR | < -0.25
59 | VESVRAPQ | < -0.25
60 | ILYHGKRPATLLYAAQRETS | < -0.25
61 | IPDHKAQS | < -0.25
62 | GVLHLY | < -0.25
63 | DRKCGLDPTSIATSTLQIVA | < -0.25
64 | RYVSRSEVIVEPQSLRIA | < -0.25
65 | TRVVFPHGVVQLQPGRPH | < -0.25
66 | LVLLKGFRQQPIYS | < -0.25
67 | LNLAAVALYGQKYNLNLGTS | < -0.25
68 | DGGCGTR | < -0.25
69 | ETYCL | < -0.25

Row | Substance | growth estimate
70 | VRTSQR | -0.25
71 | TWA | < -0.25
72 | RLSGGQVAVITHGLIGVGRP | < -0.25
73 | GRDRSPCSDSMSELGGRGGD | < -0.25
74 | ERNREDVGVPRGYRLPMLDA | < -0.25
75 | VIDTTRVGLRYQIAM | < -0.25
76 | IRDPSAGFVSNVRVDRKDPA | < -0.25
77 | VCLARAESSGLTRLRKWCLC | -0.245
78 | EIIVMILLGAPGGINLHFEG | < -0.25
79 | IDSMDIRMTARSEPTVTPQP | < -0.25
80 | PPDRVARMLKSGTRG | < -0.25
81 | RGMTYG | < -0.25
82 | SSFGPWS | < -0.25
83 | PCKCIQSEASLYALYALPLC | < -0.25
84 | RSCRIVQVGPISPRCVLRSR | < -0.25
85 | LTLGQWVR | < -0.25
86 | LQM | < -0.25
87 | VSKVSYVSICSVRGDCCG | < -0.25
88 | HVPGGPANSPFCRFERI | < -0.25
89 | RLRSDAFGMLGPRTSSDPFL | < -0.25
90 | CMNRAWGITRARLVLFGSES | < -0.25
91 | SQAGKVTRHVIVGRKANGVS | < -0.25
92 | TVPYILHPITRFPLTLWWCP | < -0.25

Row | Substance | growth estimate
93 | SFRAVRSLGPFSLSTGSRGG | < -0.25
94 | FKNLGFHRQ | < -0.25
95 | CCSPAH | < -0.25
96 | GMVPDEPSSGVPRSEILVLD | < -0.25
97 | RGGMRSE | < -0.25
98 | YSVRLQLLEASEGYKTST | < -0.25
99 | ASVAYRNVGGVSAG | < -0.25
100 | VSGLITYMRFV | < -0.25
101 | SSQSVVR | < -0.25
102 | PGGRLCRIPLCS | < -0.25
103 | AFPVIVPPASIGALCLAGTA | < -0.25
104 | HCHRIQRHLKSAEHVED | < -0.25
105 | ARGLFGM | -0.248
106 | SSWSILRCSL | < -0.25
107 | HDMAKYMLLWDYGGTWVSTR | < -0.25
108 | SRVHINTAEALRFSLA | < -0.25
109 | TKSASDRTAYEDTITALLQL | < -0.25
110 | QSSRSGNTRKLYQMI | < -0.25
111 | RLILP | < -0.25
112 | HAASRSVVMLIGSWLDLYNT | < -0.25
113 | HGSGWPLSLMSRHMSPRILE | < -0.25
114 | ETKR | < -0.25
115 | TWD | -0.245

Row | Substance | growth estimate
116 | ETAGECRMLRFRLRSPNRYY | < -0.25
117 | LHRNATRDVRRRTFFNENIP | < -0.25
118 | ILTLSLNSWGKVWEYGWKVG | < -0.25
119 | RLDVAPRIGADPIVSVPNSW | < -0.25
120 | DLPYGVVNEPVS | < -0.25
121 | DVSILSFSCRAGCN | < -0.25
122 | SVHRTG | < -0.25
123 | LNWYRHRFACLHGRPQWTRS | < -0.25
124 | GVRRRY | < -0.25
125 | AYSRYKGK | -0.246
126 | DNMGDIVRGARCKTGARCVE | < -0.25
127 | ESCELPVCQKAAEGGSGAGG | < -0.25
128 | SFGVTLLRARTSR | < -0.25
129 | LAASPIQIRKLSVSVRTAAN | < -0.25
130 | TITTTLCTMMSGSYSRSTRI | < -0.25
131 | FKTHSLQFSLIRETEQDMPD | < -0.25
132 | LRLRWSVVLDRGVDAS | < -0.25
133 | GRAVTQFTREGRG | < -0.25
134 | HLFSTECGRAMTMCESTGSG | < -0.25
135 | PQNVNCANKVGSTGKHYDLP | < -0.25
136 | PEERG | < -0.25
137 | PTAFVLDLLKCSSLTRVP | < -0.25
138 | GVKLGGVPPLRRTDRRYLGS | < -0.25

Entries 18–22, quoted:
Row | Substance | growth estimate
18 | AKCGTVNLMTPERVMVVFGS | < -0.25
19 | CTPPILGSVACKVGSLQLRG | < -0.25
20 | IEPY | < -0.25
21 | IWARSSIDPRQHGVSIKDK | < -0.25
22 | GQYHYDTLGSRRGRWGIFWA | < -0.25

The results go on.

Row | Substance | growth estimate
139 | RCHSAVCGCR | < -0.25
140 | VIVVG | < -0.25
141 | RNQKVPEVRRLRRRETCRKA | < -0.25
142 | ESCGDVAARNV | < -0.25
143 | SVIDKSLTWW | < -0.25
144 | RRASRRFLFW | < -0.25
145 | EGSHRPYTEYQDLFDRSVTT | < -0.25
146 | DLSVVLVGAAA | < -0.25
147 | CLLLQASCQQELLHRTPSSD | < -0.25
148 | LCVRKRGI | < -0.25
149 | HFCLSVVAYLGRGYRPSYCA | < -0.25
150 | MTLDTLGRAVEGRLGRRCTF | < -0.25
151 | SWFAIAWSPAKYKGADARAR | < -0.25
152 | FLAERFVYAPSM | < -0.25
153 | SRRRRETLSGFRPP | < -0.25
154 | RLLAGTQQLLTCDLSS | < -0.25
155 | GVIGLASSSISSRDRRPGTL | < -0.25
156 | VFLERAQRSRY | < -0.25
157 | AVINH | < -0.25
158 | CGLWIR | < -0.25
159 | LMAPRRSTSKQVRRKTCALS | -0.245
